These are yes or no findings as the source states them, for the method shown. Binding calls can cover weak binding; strength is not graded here.

These results are taken from PMC5080441, “A direct-sensing galactose chemoreceptor recently evolved in invasive strains of Campylobacter jejuni” (Nature Communications, 2016).

Assay [1] deals with T1, CheV (Campylobacter jejuni) (UniProt Q0PBM1).
T1 sequence: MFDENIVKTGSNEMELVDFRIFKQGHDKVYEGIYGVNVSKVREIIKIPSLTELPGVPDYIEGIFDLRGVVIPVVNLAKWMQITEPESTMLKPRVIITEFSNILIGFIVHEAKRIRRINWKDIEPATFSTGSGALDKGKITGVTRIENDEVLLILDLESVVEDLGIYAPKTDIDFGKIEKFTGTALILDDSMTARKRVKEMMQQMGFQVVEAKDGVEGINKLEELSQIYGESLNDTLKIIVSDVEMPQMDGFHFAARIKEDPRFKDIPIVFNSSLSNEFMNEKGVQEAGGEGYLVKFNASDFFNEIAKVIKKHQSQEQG
Kind of assay: two-hybrid; yeast two-hybrid; AD-CcrG^sig as prey with BD fusions of the partner; as described in ref. 24.

Assay [2] has as its target CcrG signalling domain (CcrG^sig), residues 562-707 of CcrG (Tlp11) (Campylobacter jejuni (strain 520)). Put plainly: two-hybrid; yeast two-hybrid; BD-CcrG^sig as bait; analysed on intermediate stringency medium containing 1 mM 3-AT to suppress autonomous activation by BD-CcrG^sig.

For the molecule “CcrG signalling domain (CcrG^sig), residues 562-707 of CcrG (Tlp11) (Campylobacter jejuni (strain 520)) (domain or fragment)”, in assay [1], the binding result was “binds”.

B1: CheV (protein, UniProt Q0PBM1 1-318)
chain: T1 sequence
With B1, the binding entry in assay [2] is given as “binds”.

B2: CheW (protein, UniProt Q0PBM3 1-173)
chain: MSNEKLEQILQKQQTQMAGPDVDQREDDIIQLVGFVVGDEEYAIPILNIQEIIKPIEYTRVPSVPDYVLGVFNMRGNVMPLIDLAQRFHLGSSKMTPQTRYIVLRGETNGTGVGGNAGFVIDRLTEAIKIHRNRIDPPPETLVKDKGMIYGIGKRDENILTILKVEALLKREF
In the case of B2, in assay [2], the binding entry is “binds”.
